Measured values taken from patent publication US20140086913A1 (Gilead, published 2014).
These are yes or no findings as the source states them, for the method shown. Some results given as binding are weak or reduced against the parent protein; the word gives no strength. For some assays here: Sequences can lack the tags named with a protein.

T1: mouse DDR1 stably expressed on HEK293 cells (mouse) (UniProt Q03146)
T1 sequence (looked up): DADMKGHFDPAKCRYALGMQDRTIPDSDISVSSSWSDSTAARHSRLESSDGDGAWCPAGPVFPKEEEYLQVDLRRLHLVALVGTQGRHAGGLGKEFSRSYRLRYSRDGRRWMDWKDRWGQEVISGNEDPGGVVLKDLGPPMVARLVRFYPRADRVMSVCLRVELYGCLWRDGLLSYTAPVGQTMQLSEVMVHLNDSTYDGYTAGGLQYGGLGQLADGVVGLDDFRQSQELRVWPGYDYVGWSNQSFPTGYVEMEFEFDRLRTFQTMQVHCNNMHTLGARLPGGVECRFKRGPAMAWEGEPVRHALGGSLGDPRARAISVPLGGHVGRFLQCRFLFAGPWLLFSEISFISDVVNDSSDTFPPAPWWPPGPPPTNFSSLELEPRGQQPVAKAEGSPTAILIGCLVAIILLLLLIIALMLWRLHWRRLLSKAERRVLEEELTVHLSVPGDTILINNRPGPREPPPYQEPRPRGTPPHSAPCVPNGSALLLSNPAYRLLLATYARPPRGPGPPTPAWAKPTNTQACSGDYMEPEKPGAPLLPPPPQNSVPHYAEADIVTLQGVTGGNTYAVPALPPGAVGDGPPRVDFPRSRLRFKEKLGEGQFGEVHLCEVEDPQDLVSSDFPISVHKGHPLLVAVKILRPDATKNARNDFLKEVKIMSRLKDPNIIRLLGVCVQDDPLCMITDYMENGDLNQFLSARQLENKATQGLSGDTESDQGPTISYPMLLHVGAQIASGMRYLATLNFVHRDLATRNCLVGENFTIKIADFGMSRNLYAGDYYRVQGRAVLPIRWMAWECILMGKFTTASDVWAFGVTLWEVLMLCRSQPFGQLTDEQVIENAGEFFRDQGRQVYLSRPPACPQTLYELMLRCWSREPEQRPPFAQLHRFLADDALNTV

T2: mouse ECD-DDR1-Fc (mouse; human, UniProt Q03146 22-414)
T2 construct: also called mouse DDR1-ECD; wild-type mouse DDR1-ECD; not shown: human IgG1 Fc of the vector pFuse-hIgG1-Fc1 (Invivogen)
T2 sequence: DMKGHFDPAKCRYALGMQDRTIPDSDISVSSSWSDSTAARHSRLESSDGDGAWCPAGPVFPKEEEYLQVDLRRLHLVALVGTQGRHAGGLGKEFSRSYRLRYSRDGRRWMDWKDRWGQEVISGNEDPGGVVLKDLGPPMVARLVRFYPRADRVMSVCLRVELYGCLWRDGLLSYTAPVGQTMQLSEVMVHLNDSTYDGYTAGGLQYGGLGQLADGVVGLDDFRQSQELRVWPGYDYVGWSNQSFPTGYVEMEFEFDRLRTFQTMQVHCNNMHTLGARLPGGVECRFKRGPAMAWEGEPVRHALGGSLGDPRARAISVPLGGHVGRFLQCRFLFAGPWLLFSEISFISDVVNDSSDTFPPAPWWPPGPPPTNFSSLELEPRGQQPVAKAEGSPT


Legend:
[1] = target: T1, mouse DDR1 stably expressed on HEK293 cells (mouse); test: flow cytometry on transfected HEK293 cells
mouse ECD-DDR1-Fc = target: T2, mouse ECD-DDR1-Fc; test: ELISA of Example 8
[2] = target: human DDR1-ECD in the human IgG1-Fc expression vector (Example 8) (human) (UniProt Q08345); test: ELISA of Example 8

Binder	binding [1]	binding (mouse ECD-DDR1-Fc)	binding [2]
AB2004 (antibody, V domains shown, mouse hybridoma mAb) VH: DVHLQESGPDLVKPSQSLSLTCTVTDYSITSGYGWHWIRQFPGNKLEWMGYIHYGGSTKYNSSLKSRISITRDTSKNQFFLQLKSVTTDDTGTYYCATSGNYGFAYWGQGTLVTVSA VL: DIVLTQSPTSLAVSLGQRATMSCRASESVDDYGTSFMHWYQQKPGQPPKLLIYRASNLESGIPARFSGSGSRADFTLSINPVEPDDVATYYCQQSNEDPFTFGSGTKLEIKR	binds	–	–
AB2074 (antibody, V domains shown, mouse hybridoma mAb) VH: EIQLQQSGPELVNPGASVKVSCKASGYSFTDYNMYWVKQSHGKSLEWIGYIDPYNGGTSYNQKFKGKATLTVDKSSSTAFMHLNSLTSEDSAVYYCAREYYGSRLWYFDVWGAGTAVTVSS VL: DIVMTQSPSSLAMSVGQKVTMSCKSSQSLLNRNNQKNYLAWYQQKPGQSPKLLVYFASTRESGVPDRFIGSGSGTDFTLTLSSVRAEDLAENFCQQHYSTPFTFGSGTRLEIKR	–	binds	binds

Further lines, results first:

binding [1]	binding (mouse ECD-DDR1-Fc)	binding [2]	Binder
–	binds	binds	AB2061 (antibody, V domains shown, mouse hybridoma mAb) VH: EIQLQQSGPELVNPGASVKVSCKASGYSFTDYNMYWVKQSHGKSLEWIGYIDPYNGGTSYNQKFKGKATLTVDKSSSTAFMHLNSLTSEDSAVYYCAREYYGSRLWYFDVWGAGTAVTVSS VL: DIVMTQSPSSLAMSVGQKVTMSCKSSQSLLNRNNQKNYLAWYQQKPGQSPKLLVYFASTRESGVPDRFIGSGSGTDFTLTLSSVRAEDLAENFCQQHYSTPFTFGSGTRLEIKR
binds	binds	binds	AB2078 (antibody, V domains shown, mouse hybridoma mAb) VH: EIQLQQSGPELVNPGASVKVSCKASGYSFTDYNMYWVKQSHGKSLEWIGYIDPYNGGTSYNQKFKGKATLTVDKSSSTAFMHLNSLTSEDSAVYYCAREYYGSRLWYFDVWGAGTAVTVSS VL: DIVMTQSPSSLAMSVGQKVTMSCKSSQSLLNRNNQKNYLAWYQQKPGQSPKLLVYFASTRESGVPDRFIGSGSGTDFTLTLSSVRAEDLAENFCQQHYSTPFTFGSGTRLEIKR
